Source: article PMC6894925
No constants are given. Whether binding was seen depends on the method and setting. In cells and extracts the contact can be indirect. Some results given as binding are weak or reduced against the parent protein; the word gives no strength.

Protein sequences, listed by entry. Tags and fused reporters are not part of them. Residues count along the entry.
UniProt P28824, residues 22-928: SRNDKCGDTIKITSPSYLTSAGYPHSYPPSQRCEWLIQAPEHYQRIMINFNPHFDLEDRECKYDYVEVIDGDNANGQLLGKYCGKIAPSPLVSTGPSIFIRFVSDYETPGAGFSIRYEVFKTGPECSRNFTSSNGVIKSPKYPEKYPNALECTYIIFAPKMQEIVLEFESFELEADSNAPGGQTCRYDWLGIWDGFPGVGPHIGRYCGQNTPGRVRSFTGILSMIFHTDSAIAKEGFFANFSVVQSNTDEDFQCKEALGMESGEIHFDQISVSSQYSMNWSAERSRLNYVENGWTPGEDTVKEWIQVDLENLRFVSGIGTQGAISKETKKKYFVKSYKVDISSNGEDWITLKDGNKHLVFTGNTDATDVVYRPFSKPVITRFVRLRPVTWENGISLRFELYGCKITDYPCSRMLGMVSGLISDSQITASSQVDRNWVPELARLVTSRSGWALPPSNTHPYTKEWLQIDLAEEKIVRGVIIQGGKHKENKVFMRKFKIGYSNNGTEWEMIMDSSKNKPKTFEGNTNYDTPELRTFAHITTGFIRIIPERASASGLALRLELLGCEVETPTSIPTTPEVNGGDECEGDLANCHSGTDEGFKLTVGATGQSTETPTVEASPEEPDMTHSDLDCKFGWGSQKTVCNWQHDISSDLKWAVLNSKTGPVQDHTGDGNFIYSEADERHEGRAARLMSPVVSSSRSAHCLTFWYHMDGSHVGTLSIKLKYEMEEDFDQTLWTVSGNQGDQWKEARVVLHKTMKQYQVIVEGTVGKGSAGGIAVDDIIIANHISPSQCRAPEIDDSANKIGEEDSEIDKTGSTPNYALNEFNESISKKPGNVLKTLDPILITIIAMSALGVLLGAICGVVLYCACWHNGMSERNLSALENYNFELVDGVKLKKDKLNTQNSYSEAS

Molecular target: Neuropilin-1 (Nrp1), Xenopus laevis (Xenopus laevis (endogenous in embryonic brains and eyes and retinal cultures)) (UniProt P28824)
Test: co-IP; IP of the endogenous receptor from Xenopus stage 40/41 brain and eye lysate with antibody-coupled Dynabeads (1.5 hr, 4 C; 20 mM Tris-HCl pH 7.4, 150 mM NaCl, 10 mM MgCl2, 10% glycerol, cycloheximide), Western blot; isotype IgG control; in some samples washes with 25 mM EDTA or RNase A/T1 before elution, which decreased the ribosomal proteins and partly Staufen1

B1: Staufen1, Xenopus laevis (protein, UniProt Q6GM35 1-708)
chain: MSQAPKSPAAPLPKIQILNKNQHSPLPQPLSIPSTASPLPSENAGRPLQNSALPSPSVTSSGPTAVSSNMANPKEKTPMCLVNELARFNKIQPVYKLLSEQGPAHSKVIPLGRWQDYSLLERVGEERPRQMFTVQLTLGDQYWEAEGTSIKKAQHAAAAKALEGTKYPKPTVRPVRDSITPTVELNALCMKLGRKPIYKPLDPYTGIRSAYNYNMRGGGYPPRYFYPFPVAPILYQVELSVGGQQFHGKGRTRQAAKHDAAARALKSLHHEPLPDKPALNGKAADEENLNKSEISQVFEIALKRNMSVNFEVTKETGPPHMKSFLTKVIVGEFLGEGEGKSKKISKKNAAIAVLEELRKLPPLPTVEKMRPKIKKKTKSIVKLPTSPEYGQGMNPISRLAQIQQAKKGKEPEYILITERGLPRRREFVMQVKVGNHAAEGSGTNKKVAKRNAAENMLEILGFKVPPPPPKPALKTEEKLPVKKPGDGRKVTFYEPGSGEDGANHNKDDEFRMPYHSHQQLPAGILPMVPEVAQAVGVNQGLHTKEFNRVAPNPAKATVTAMIARELLYAGISPTADTILKNNNAAGHVLRGPFTRPSEQLNYLSRVQGLEVEYKDFPKNNKNEFVSLINCSSQPPLISHGIGKDVESCHDMAALNILKLLSELDQQNPEMPRTGNGPMSVCVKPEMESDPLLKPANSNTLGQTLDSTA
binding: binds
